From PubChem BioAssay AID1487 (National Center for Advancing Translational Sciences (NCATS), 2009)
Some of the results follow. Further columns of the screen follow, without active or inactive calls. The list favours compounds with an active or inconclusive main result. Words in brackets tell the shape of the fitted curve; partial curves, single points and poor fits give uncertain potencies.

Assay: qHTS Assay for Modulators of Lamin A Splicing
Conditions: HeLa LMNA splicing GFP/RFP minigene ratio, 48 h
Method in brief: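 S3 HeLa cells stably expressing lamin A-EGFP splicing minigene plus DsRed2, 600 cells/well, 48 h compound exposure at 37C. Laser-scanning cytometry; analysed as GFP (500-530 nm)/RFP (575-640 nm) total intensity ratio; 0.5% DMSO vehicle.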

[1] = measured here: GFP splicing reporter channel
[2] = measured here: RFP viability control channel

C[C@@H](C(=O)O)c1ccc(N2Cc3ccccc3C2=O)cc1
AC50 [1]: 0.141 µM [falling, full curve] | AC50 [2]: 0.126 µM [falling, full curve]

Cc1ccccc1OCCCC(=O)Nc1nccs1
AC50 [2]: 35.5 µM [rising, single point]

C=CCSc1nc2ccccc2n1C(=O)/C=C/c1cc(OC)c(OC)c(OC)c1
AC50 [1]: 6.31 µM [falling, full curve, poor fit] | AC50 [2]: 2.24 µM [falling, single point]

Cc1ccc(Nc2nc(C(=O)NCCCN3CCOCC3)cs2)cc1
AC50 [2]: 35.5 µM [rising, single point]

CCC(=O)N1CCCc2cc(S(=O)(=O)N3CCN(C4CCCCC4)CC3)ccc21
AC50 [2]: 0.178 µM [rising, full curve, poor fit]

CC(=O)Nc1cccc(NC(=O)c2cc3c(=O)n4cccc(C)c4nc3n2C)c1
AC50 [1]: 0.0316 µM [falling, full curve, poor fit] | AC50 [2]: 0.0398 µM [falling, full curve, poor fit]

CCc1ccc(N2CC(C(=O)Nc3nccs3)CC2=O)cc1 (stereo not drawn)
AC50 [2]: 0.708 µM [falling, full curve, poor fit]

C=CCNC(=S)N/N=C/c1ccc(C(F)(F)F)cc1
AC50 [1]: 14.1 µM [rising, partial curve, poor fit]

COc1cccc(NC(=O)CCCOc2cc(=O)n(C)c3ccccc23)c1
AC50 [2]: 14.1 µM [rising, single point]

c1ccc(-c2csc3ncnc(NCCCN4CCOCC4)c23)cc1
AC50 [2]: 25.1 µM [rising, single point]

NC(=O)c1ccc(-c2ncc(-c3ccccc3)o2)cc1
AC50 [2]: 35.5 µM [falling, single point]

Cc1ccc(S(=O)(=O)N2CCN(Cc3cc(C(C)C)ccc3O)CC2)cc1
AC50 [2]: 22.4 µM [rising, single point]

COc1ccc(N2C(=O)CSC2c2cccs2)cc1 (stereo not drawn)
AC50 [1]: 35.5 µM [rising, single point]

Cc1nnc(Sc2cc(C(=O)NCCCN(C)Cc3ccccc3)c3ccccc3n2)s1
AC50 [2]: 28.2 µM [rising, single point]

O=C(CSc1ncn[nH]1)Nc1ccc(Cl)c(Cl)c1
AC50 [2]: 12.6 µM [rising, partial curve, poor fit]

Cc1ccc(C(=O)/C=C/c2ccccc2)o1
AC50 [1]: 35.5 µM [falling, single point] | AC50 [2]: 35.5 µM [falling, single point]

CCOC(=O)CCSCC(=O)Nc1cc(C)on1
AC50 [1]: 22.4 µM [rising, single point] | AC50 [2]: 31.6 µM [rising, single point]

Cc1ccc(-c2c[n+](CC(=O)Nc3cc(=O)n(C)c(=O)n3C)c3n2CCC3)cc1
AC50 [2]: 11.2 µM [rising, partial curve]

O=C(Nc1ccc(Nc2ccccc2)cc1)c1ccc(Br)o1
AC50 [1]: 22.4 µM [rising, single point] | AC50 [2]: 31.6 µM [rising, single point]

Cc1ccc(NC(=S)NCC2CCN(C(C)c3ccccc3)C2)cc1 (stereo not drawn)
AC50 [2]: 1.26 µM [falling, full curve, poor fit]

Cc1c(C#N)c(NC(=O)CCl)n(Cc2cccs2)c1C
AC50 [2]: 25.1 µM [falling, single point]

Cc1[nH]c2ccccc2c1C(=O)CSc1ccc(F)cc1
AC50 [1]: 12.6 µM [rising, partial curve, poor fit] | AC50 [2]: 14.1 µM [rising, single point]

OCCC1CN(Cc2nc3c(s2)CCCC3)CCN1Cc1ccsc1 (stereo not drawn)
AC50 [1]: 11.2 µM [falling, partial curve] | AC50 [2]: 11.2 µM [falling, partial curve, poor fit]

CCCNc1nc2c(c(=O)n(C)c(=O)n2C)n1CCc1ccccc1
AC50 [1]: 2.51 µM [rising, full curve, poor fit] | AC50 [2]: 7.94 µM [rising, partial curve]

Cn1c(CCN2CCCCC2)nc2cc(NC(=O)NC3CCCCC3)ccc21
AC50 [2]: 14.1 µM [rising, single point]

CCOc1ccc(Br)cc1S(=O)(=O)Nc1ccc(N2CCOCC2)cc1
AC50 [2]: 12.6 µM [rising, single point]

COc1cc(NS(C)(=O)=O)ccc1Cc1c2ccccc2nc2ccccc12
AC50 [1]: 0.0794 µM [falling, full curve, poor fit] | AC50 [2]: 0.158 µM [rising, full curve]

Cc1[nH]c2ccccc2c1C(=O)/C=C/c1ccccc1
AC50 [1]: 17.8 µM [falling, partial curve, poor fit]

O=S(=O)(c1cccs1)N1CCN(Cc2nc3ccccc3s2)CC1
AC50 [2]: 25.1 µM [rising, single point]

CCOC(=O)c1ccc(Oc2cc(C)nc(SC)n2)cc1
AC50 [2]: 7.08 µM [rising, full curve]

COCc1nnc(NC(C)=O)s1
AC50 [1]: 0.112 µM [rising, partial curve, poor fit]

COc1cc(NC(=O)c2ccc(OC)c([N+](=O)[O-])c2)ccc1NC(=O)c1cccs1
AC50 [2]: 0.0708 µM [rising, full curve, poor fit]

Cc1nc(-c2ccc(C)c(N3CCN(C(=O)Nc4cccc(Cl)c4C)CC3)c2)no1
AC50 [1]: 28.2 µM [falling, partial curve] | AC50 [2]: 22.4 µM [falling, partial curve, poor fit]

O=C(Cn1c(NCCO)nc2ccccc21)NCCc1ccc(F)cc1
AC50 [1]: 15.8 µM [falling, single point] | AC50 [2]: 2 µM [falling, partial curve]

CCOC(=O)c1cnc(-n2nc(C)cc2C)nc1NC1CCCCC1
AC50 [2]: 3.55 µM [rising, full curve]

Cc1ccc(-c2nc(N)n(C(=O)c3cccs3)n2)cc1
AC50 [2]: 4.47 µM [falling, full curve, poor fit]

COc1ccc(Cl)cc1NC(=S)NNC(=O)C1(C)CC1(Cl)Cl (stereo not drawn)
AC50 [2]: 1 µM [falling, full curve, poor fit]

CC1(C)c2ssc(=S)c2-c2ccccc2N1C(=O)c1ccco1
AC50 [1]: 35.5 µM [rising, single point]

COCCCN(C(=S)Nc1cc(Cl)cc(Cl)c1)C(C)c1ccncc1 (stereo not drawn)
AC50 [2]: 14.1 µM [rising, single point]

Cc1nc(N2CCC(C)CC2)c2oc3ccccc3c2n1
AC50 [1]: 14.1 µM [rising, single point]

CC1=C(C(=O)N2CCCCC2)C(c2cccs2)NC(=O)N1 (stereo not drawn)
AC50 [1]: 20 µM [rising, single point]

COc1cc(/C=C2\SC(=O)NC2=O)ccc1Oc1ccc([N+](=O)[O-])cc1[N+](=O)[O-]
AC50 [1]: 11.2 µM [falling, partial curve, poor fit]

O=[N+]([O-])c1ccc(NC(=S)NCCc2ccc(Cl)cc2)cc1
AC50 [1]: 12.6 µM [rising, single point] | AC50 [2]: 14.1 µM [rising, single point]

CCCCNC(C(=O)Nc1ccc(Cl)c([N+](=O)[O-])c1)c1ccccc1 (stereo not drawn)
AC50 [2]: 10 µM [rising, partial curve, poor fit]

COc1ccc(Nc2sc(C(=O)c3ccc(Cl)cc3)c(N)c2C(=O)Nc2ccccc2OC)cc1
AC50 [1]: 22.4 µM [rising, single point] | AC50 [2]: 25.1 µM [rising, single point]

Cc1nnsc1SCCNC(=O)Nc1ccc(Cl)cc1
AC50 [2]: 35.5 µM [rising, single point]

COc1ccc(-c2cc(=O)c3c(O)cc(O)cc3o2)cc1
AC50 [1]: 12.6 µM [falling, single point] | AC50 [2]: 14.1 µM [falling, single point]

Clc1ccccc1Cn1c(/C=C/c2ccco2)nc2ccccc21
AC50 [2]: 14.1 µM [falling, partial curve]

O=C(CSc1nc(-c2ccccc2)c(-c2ccccc2)[nH]1)NCCN1C(=O)CSC1=O
AC50 [2]: 22.4 µM [rising, single point]

CCOc1ccccc1C(=O)N1CCN(C(c2ccccc2)c2ccccc2)CC1
AC50 [1]: 0.794 µM [falling, partial curve] | AC50 [2]: 12.6 µM [rising, single point]

O=C(Nc1ccccc1)C1=C(c2ccccc2)S(=O)(=O)CCS1(=O)=O
AC50 [2]: 2.51 µM [rising, partial curve]

OC[C@H]1O[C@@H](n2cnc3c(Nc4ccccc4)ncnc32)[C@H](O)[C@H]1O
AC50 [1]: 15.8 µM [rising, single point] | AC50 [2]: 20 µM [rising, single point]

CC(C)(C)OC(=O)N1CCC[C@H]1c1nnc(SCc2ccc(Cl)cc2Cl)o1
AC50 [1]: 11.2 µM [rising, partial curve] | AC50 [2]: 12.6 µM [rising, partial curve]

CCOC(=O)c1sc(NC(=O)c2cc(-c3ccccc3C)nc3ccccc23)c(C#N)c1C
AC50 [2]: 15.8 µM [rising, single point]

O=C1CCCN1c1ccc(S(=O)(=O)N2CCC(c3ccccc3)CC2)cc1
AC50 [1]: 2.51 µM [rising, single point] | AC50 [2]: 2.82 µM [rising, full curve]

C=CCc1cccc(/C=N/NC(=O)CNc2cccc3ccccc23)c1O
AC50 [2]: 25.1 µM [rising, single point]

Cc1ccc(-c2nc3ncccc3o2)cc1NC(=O)c1cccs1
AC50 [1]: 0.00501 µM [falling, full curve, poor fit] | AC50 [2]: 0.00316 µM [falling, full curve, poor fit]

CC(C)(C)OC(=O)NNC(=S)NC1CCCCC1
AC50 [1]: 35.5 µM [falling, partial curve, poor fit]
